Test results as given in patent US7582632B2, “Tri(cyclo) substituted amide compounds” (Prosidion Limited, priority 2003, dated 2009).
Some entries share one result that the patent states for a list of compounds.

Molecular target: T1, GST-GK, derived from human liver GK (Homo sapiens, UniProt P35557)
T1 sequence (P35557 1-466 isoform P35557-2): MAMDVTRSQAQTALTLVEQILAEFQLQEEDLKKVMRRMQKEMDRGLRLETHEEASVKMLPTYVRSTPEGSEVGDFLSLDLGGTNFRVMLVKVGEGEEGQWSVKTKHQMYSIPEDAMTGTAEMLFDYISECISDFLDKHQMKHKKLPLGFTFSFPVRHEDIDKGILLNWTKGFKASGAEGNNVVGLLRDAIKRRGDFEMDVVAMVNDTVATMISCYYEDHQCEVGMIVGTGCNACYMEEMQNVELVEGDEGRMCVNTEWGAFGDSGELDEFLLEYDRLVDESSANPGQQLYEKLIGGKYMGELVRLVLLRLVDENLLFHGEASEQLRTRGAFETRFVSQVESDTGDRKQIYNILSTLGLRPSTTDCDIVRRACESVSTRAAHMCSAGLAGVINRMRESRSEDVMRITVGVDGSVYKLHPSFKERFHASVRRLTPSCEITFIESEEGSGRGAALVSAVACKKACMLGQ
Assay: In vitro GK activity (G6PDH-coupled GST-GK assay)
Type: biochemical
Conditions: 5 mM D-Glc, 30° C.

| Compound | compound concentration that produced a 50% increase in GK activity (FA 1.5) [µM] |
| --- | --- |
| Nc1ccc(C(CC2CCOCC2)C(=O)Nc2nccs2)cc1 (stereo not shown) [2-(4-aminophenyl)-3-(tetrahydropyran-4-yl)-N-thiazol-2-ylpropionamide] | > 30 |
| O=C(Nc1ncc(C(=O)O)s1)C(=CC1CCOCC1)c1ccc(C(=O)O)cc1 [2-[2-(4-Carboxyphenyl)-3-(tetrahydropyran-4-yl)acryloylamino]-thiazole-5-carboxylic acid] | > 30 |
| CCOC(=O)c1cnc(NC(=O)C(CC2CCOCC2)c2ccc(S(C)(=O)=O)cc2)s1 (stereo not shown) [2-[2-(4-Methanesulfonylphenyl)-3-(tetrahydropyran-4-yl)-propionylamino]-thiazole-5-carboxylic acid ethyl ester] | > 30 |
| CCOC(=O)c1csc(NC(=O)C(CC2CCOCC2)c2ccc(S(C)(=O)=O)cc2)n1 (stereo not shown) [2-[2-(4-Methanesulfonylphenyl)-3-(tetrahydropyran-4-yl)propionylamino]-thiazole-4-carboxylic acid ethyl ester] | > 30 |
| CS(=O)(=O)c1ccc(C(CC2CCOCC2)C(=O)Nc2nc(C(=O)O)cs2)cc1 (stereo not shown) [2-[2-(4-Methanesulfonylphenyl)-3-(tetrahydropyran-4-yl)propionylamino]-thiazole-4-carboxylic acid] | > 30 |
| CN(C)CCNC(=O)c1cnc(NC(=O)C(=CC2CCOCC2)c2ccccc2)s1 [2-[2-Phenyl-3-(tetrahydro-pyran-4-yl)acryloylamino]thiazole-5-carboxylic acid (2-dimethylaminoethyl)amide] | > 30 |
| COc1cccc(C(=Cc2ccco2)C(=O)Nc2ccccn2)c1 [3-Furan-2-yl-2-(3-methoxyphenyl)-N-pyridin-2-yl-acrylamide] | > 30 |
| COc1cccc(C(=Cc2ccco2)C(=O)Nc2nccs2)c1 [3-Furan-2-yl-2-(3-methoxyphenyl)-N-thiazol-2-yl-acrylamide] | > 30 |
| COc1ccc(C(=Cc2ccco2)C(=O)Nc2nc(C(F)(F)F)cs2)cc1 [3-Furan-2-yl-2-(4-methoxyphenyl)-N-(4-trifluoromethyl-thiazol-2-yl)acrylamide] | > 30 |
| COc1ccc(C(=Cc2ccco2)C(=O)Nc2ccncn2)cc1 [3-Furan-2-yl-2-(4-methoxyphenyl)-N-pyrimidin-4-yl-acrylamide] | > 30 |
| O=C(Nc1nccs1)c1cccc(C(CC2CCOCC2)C(=O)Nc2nccs2)c1 (stereo not shown) [3-[2-(Tetrahydropyran-4-yl)-1-(thiazol-2-ylcarbamoyl)ethyl]-N-thiazol-2-yl-benzamide] | > 30 |
| COC(=O)c1cccc(C(CC2CCOCC2)C(=O)Nc2nccs2)c1 (stereo not shown) [3-[2-(Tetrahydropyran-4-yl)-1-(thiazol-2-ylcarbamoyl)ethyl]benzoic acid methyl ester] | > 30 |
| O=C(O)c1cccc(C(CC2CCOCC2)C(=O)Nc2nccs2)c1 (stereo not shown) [3-[2-(Tetrahydropyran-4-yl)-1-(thiazol-2-ylcarbamoyl)ethyl]benzoic acid] | > 30 |
| NC(=O)c1ccc(C(CC2CCOCC2)C(=O)Nc2nccs2)cc1 (stereo not shown) [4-[2-(Tetrahydropyran-4-yl)-1-(thiazol-2-ylcarbamoyl)ethyl]benzamide] | > 30 |
| O=C(O)c1ccc(C(CC2CCOCC2)C(=O)Nc2nccs2)cc1 (stereo not shown) [4-[2-(Tetrahydropyran-4-yl)-1-(thiazol-2-ylcarbamoyl)ethyl]benzoic acid] | > 30 |
| CN(C)C(=O)c1ccc(C(CC2CCOCC2)C(=O)Nc2nccs2)cc1 (stereo not shown) [N,N-Dimethyl-4-[2-(tetrahydropyran-4-yl)-1-(thiazol-2-ylcarbamoyl)ethyl]benzamide] | > 30 |
| CS(=O)(=O)c1ccc(C(CC2CCOCC2)C(=O)Nc2nc3ccccc3[nH]2)cc1 (stereo not shown) [N-(1H-Benzoimidazol-2-yl)-2-(4-methanesulfonylphenyl)-3-(tetrahydropyran-4-yl)-propionamide] | > 30 |
| Cc1nc(NC(=O)C(=Cc2cccs2)c2ccccc2)sc1C [N-(4,5-Dimethylthiazol-2-yl)-2-phenyl-3-thiophen-2-yl-acrylamide] | > 30 |
| COc1ccc(C(=Cc2ccco2)C(=O)Nc2nc(C)c(C)s2)cc1 [N-(4,5-Dimethylthiazol-2-yl)-3-furan-2-yl-2-(4-methoxyphenyl)acrylamide] | > 30 |

| Compound | compound concentration that produced a 50% increase in GK activity (FA 1.5) [µM] |
| --- | --- |
| COc1ccc(C(=Cc2ccco2)C(=O)Nc2ccc(Br)cn2)cc1 [N-(5-Bromopyridin-2-yl)-3-furan-2-yl-2-(4-methoxyphenyl)acrylamide] | > 30 |
| N#Cc1ccc(C(=Cc2ccccc2)C(=O)Nc2ncc(Br)s2)cc1 [N-(5-Bromothiazol-2-yl)-2-(4-cyanophenyl)-3-phenyl-acrylamide] | > 30 |
| COc1cccc(C(=Cc2ccco2)C(=O)Nc2ncc(Br)s2)c1 [N-(5-Bromothiazol-2-yl)-3-furan-2-yl-2-(3-methoxyphenyl)acrylamide] | > 30 |
| COc1ccc(C(=Cc2ccco2)C(=O)Nc2ncc(Br)s2)cc1 [N-(5-Bromothiazol-2-yl)-3-furan-2-yl-2-(4-methoxyphenyl)acrylamide] | > 30 |
| CS(=O)(=O)c1ccc(C(CC2CCOCC2)C(=O)Nc2nc3cc(Cl)ccc3o2)cc1 (stereo not shown) [N-(5-Chlorobenzooxazol-2-yl)-2-(4-methanesulfonylphenyl)-3-(tetrahydropyran-4-yl)propionamide] | > 30 |
| CS(=O)(=O)c1ccc(C(=CC2CCNCC2)C(=O)Nc2ncc(Cl)s2)cc1 [N-(5-Chlorothiazol-2-yl)-2-(4-methanesulfonylphenyl)-3-piperidin-4-yl-acrylamide] | > 30 |
| O=C(Nc1ncc(Cl)s1)C(=Cc1cccs1)c1ccccc1 [N-(5-Chlorothiazol-2-yl)-2-phenyl-3-thiophen-2-yl-acrylamide] | > 30 |
| COc1cccc(C(=Cc2ccco2)C(=O)Nc2ncc(Cl)s2)c1 [N-(5-Chlorothiazol-2-yl)-3-furan-2-yl-2-(3-methoxyphenyl)acrylamide] | > 30 |
| COc1ccc(C(=Cc2ccco2)C(=O)Nc2ncc(Cl)s2)cc1 [N-(5-Chlorothiazol-2-yl)-3-furan-2-yl-2-(4-methoxyphenyl)acrylamide] | > 30 |
| CN(C)Cc1cnc(NC(=O)C(CC2CCOCC2)c2ccc(S(C)(=O)=O)cc2)s1 (stereo not shown) [N-(5-Dimethylaminomethylthiazol-2-yl)-2-(4-methanesulfonylphenyl)-3-(tetrahydropyran-4-yl)propionamide] | > 30 |
| Cc1cnc(NC(=O)C(=Cc2cccs2)c2ccccc2)s1 [N-(5-Methylthiazol-2-yl)-2-phenyl-3-thiophen-2-yl-acrylamide] | > 30 |
| O=C(Nc1nc2ccccc2s1)C(=Cc1cccs1)c1ccc(Br)cc1 [N-Benzothiazol-2-yl-2-(4-bromophenyl)-3-thiophen-2-yl-acrylamide] | > 30 |
| COc1ccc(C(=Cc2ccco2)C(=O)Nc2nc3ccccc3s2)cc1 [N-Benzothiazol-2-yl-3-furan-2-yl-2-(4-methoxyphenyl)acrylamide] | > 30 |
| CS(=O)(=O)c1ccc(C(CC2CCOCC2)C(=O)Nc2nccc3ccccc23)cc1 (stereo not shown) [N-Isoquinolin-1-yl-2-(4-methanesulfonylphenyl)-3-(tetrahydropyran-4-yl)-propionamide] | > 30 |
| CS(=O)(=O)c1ccc(C(CC2CCOCC2)C(=O)Nc2cc3ccccc3cn2)cc1 (stereo not shown) [N-Isoquinolin-3-yl-2-(4-methanesulfonylphenyl)-3-(tetrahydropyran-4-yl)-propionamide] | > 30 |
| CNC(=O)c1ccc(C(CC2CCOCC2)C(=O)Nc2nccs2)cc1 (stereo not shown) [N-Methyl-4-[2-(tetrahydropyran-4-yl)-1-(thiazol-2-ylcarbamoyl)ethyl]benzamide] | > 30 |
| CCN1CCN(C(=O)c2cnc(NC(=O)C(=CC3CCOCC3)c3ccccc3)s2)CC1 [N-[5-(4-Ethylpiperazine-1-carbonyl)thiazol-2-yl]-2-phenyl-3-(tetrahydropyran-4-yl)acrylamide] | > 30 |
| CN1CCN(C(=O)c2cnc(NC(=O)C(=CC3CCOCC3)c3ccccc3)s2)CC1 [N-[5-(4-Methylpiperazine-1-carbonyl)thiazol-2-yl]-2-phenyl-3-(tetrahydropyran-4-yl)acrylamide] | > 30 |
